For 40 molecules, AC50 results are on record in PubChem BioAssay AID493014 (National Center for Advancing Translational Sciences (NCATS), 2011).

Some of the results follow. The main result of the screen is listed elsewhere. These columns were measured beside it and carry no call. Most of these compounds were active or inconclusive in the main read-out, so they are no random draw. Words in brackets tell the shape of the fitted curve; partial curves, single points and poor fits give uncertain potencies.

This assay is described as follows: qHTS Assay to Find Inhibitors of Chronic Active B-Cell Receptor Signaling. To be noted: ABC-DLBCL IkBa-CBG/CBR reporter, luminescence ratio (green luciferase fused to IkBa over red control in TMD8 lymphoma cells), 4 h. The gist of the method:
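Concentration-response series (up to 46 uM) were applied to TMD8 dual-reporter cells for 4 h at 37C with doxycycline. Green/red ratio, after filter-overlap correction, defined %Activity; red signal alone was normalised to basal cells and zero luminescence.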
In general terms: qHTS replaces the single test concentration by a dilution series.

The mark [1] stands for this setting: measured here: CBR red luminescence, cell number.
Where [2] appears, read: measured here: IkBa-CBG green luminescence.

As usually defined, the AC50 is the midpoint of the concentration-response curve, whichever way the signal moves.

Consider `Cc1cnc(C(=O)Nc2ccccc2F)cn1`, for which, under setting [1], the AC50 is 0.0517 µM [falling, full curve, poor fit].
On the same count and under the same terms, next, `CCc1nn(CCCC(=O)N2CCC(C)CC2)c(=O)c2cc3occc3n12`: 7.08 µM [rising, partial curve, poor fit]; `CCC(=O)N(C)/C=C1\Sc2ccccc2C1=O`: 12.6 µM [falling, partial curve].
On the same count and under the same terms, next, `COc1cc(C2N(Cc3ccccc3)CCN2Cc2ccccc2)ccc1OC(C)=O`: 14.1 µM [falling, partial curve, poor fit]; `O=[N+]([O-])c1cc(C(F)(F)F)ccc1Cl`: 20.6 µM [rising, single point].
The same measure, in the same setting: next, `O=C(c1ccc(C(F)(F)F)cc1)C1CCCN(C(=O)Cn2cnnn2)C1` (configuration not stated): 6.31 µM [falling, single point]; `COc1ccc(/C=N/NC(=O)c2nc(-c3ccccc3)cc(-c3ccccc3)n2)cc1O`: 3.66 µM [rising, partial curve]; `O=c1c2c3nc4ccccc4nc3n(/N=C/c3ccncc3)c2ncn1-c1ccccc1`: 5.62 µM [rising, single point].
On to `COc1ccc2c(c1)c(C(=O)CN1CCc3ccccc3C1)c(C)n2C`, for which the AC50 under setting [1] is 3.98 µM [rising, single point].
Still for that read-out and setting: to `CC1CN(S(=O)(=O)c2cccc(C(=O)OC(C)C(=O)NC3CCCCC3C)c2)CC(C)O1` (configuration not stated) belongs 22.4 µM [rising, single point]; to `C=CCn1c(SCC(=O)Nc2ccccc2OC)nc2c([nH]c3ccccc32)c1=O`, 3.16 µM [falling, partial curve, poor fit]; to `O=C(O)c1ccc2c(c1)C(=O)N(c1ccc(Nc3ccccc3)cc1)C2=O`, 35.5 µM [falling, single point].
As for `COC(=O)c1oc2ccccc2c1NC(=O)c1ccccc1O`, the AC50 under setting [1] was 35.5 µM [rising, single point].
With `O=C(Cc1c(F)cccc1Cl)Nc1ncc([N+](=O)[O-])s1`, the AC50 under setting [1] is 35.5 µM [falling, single point].
On the same count and under the same terms, next, `CCc1ccc(N(C)S(=O)(=O)c2ccc3[nH]cc(C(=O)NCCN4CCOCC4)c(=O)c3c2)cc1`: 25.9 µM [rising, single point]; `COc1ccc(CC(=O)Nc2nc3ccc(F)cc3s2)cc1S(=O)(=O)N1CCOCC1`: 8.2 µM [falling, partial curve, poor fit]; `COc1ccccc1-c1nnc(SCC(=O)Nc2ccccc2)o1`: 23.1 µM [falling, single point].
On the same count and under the same terms, next, `COC(=O)CN1C(=O)N/C(=C/c2ccc(OC)c(C)c2OC)C1=O`: 0.562 µM [falling, full curve, poor fit].
The same measure, in the same setting: to `CC(=O)N(Cc1ccccc1)Cc1nc2sc(C)c(C)c2c(=O)[nH]1` belongs 0.251 µM [rising, full curve, poor fit]; to `COc1ccc(NC(=O)CO/N=C/C(=O)Nc2ccccc2C)c([N+](=O)[O-])c1`, 0.082 µM [rising, full curve, poor fit].
`O=C1OC(=O)C2C1[C@@H]1CC[C@H]2O1` (some centres not stated): the AC50 under setting [1] was 14.1 µM [rising, partial curve, poor fit].
Consider `CC(C)(C)c1ccc(N=C2SCC(=O)N2Cc2cccs2)cc1`, for which the AC50 under setting [1] was 35.5 µM [rising, partial curve, poor fit].
Turning to `NNC(=O)c1oc2ccccc2c1-n1cccc1`, the AC50 was 6.31 µM [rising, partial curve, poor fit] under setting [1] and 3.98 µM [falling, single point] under setting [2].
Turning to `O=C1C=C(Nc2ccc(F)cc2)c2ccccc2C1=O`, the AC50 under setting [1] was 4.11 µM [falling, single point].
As to `CCCCNC(=O)c1ccccc1NC(=O)CCSc1ccccc1`, the AC50 under setting [1] is 18.4 µM [falling, partial curve, poor fit].
With `Cc1ccc(N2CCN(S(=O)(=O)c3ccc(F)c(C)c3)CC2)c(C)c1`, the AC50 under setting [1] is 32.6 µM [rising, single point].
For the molecule `CC(=O)Nc1ccc(NC(=O)COC(=O)[C@@H]2CCCN2C(=O)c2cccs2)cc1`, under setting [1], the AC50 was 20.6 µM [rising, single point].
Take `Cc1cc(C)nc(SCc2ccc(C(=O)N/N=C/c3cccnc3)cc2)n1`: the AC50 under setting [1] is 4.47 µM [rising, full curve, poor fit] and the half-maximal activity concentration (AC50) under setting [2] is 10 µM [falling, partial curve, poor fit].
In the case of `CN(C)S(=O)(=O)c1ccc(C(=O)Nc2nnc(-c3ccco3)o2)cc1`, the half-maximal activity concentration (AC50) under setting [1] is 5.62 µM [falling, single point].
As for `CCc1cc(Cn2nc(C(=O)O)cc2-c2ccccc2)on1`, under setting [1], the concentration at half-maximal activity (AC50) is 0.58 µM [rising, full curve].
Still for that read-out and setting: to `COc1cc(NC(=S)N2CCN(C(c3ccccc3)c3ccccc3)CC2)cc(OC)c1` belongs 18.4 µM [falling, single point].
The same measure, in the same setting: next, `COc1ccc(C)cc1N(C(=O)c1snc(C(N)=O)c1N)C(C(=O)NC1CCCC1)c1ccc(F)cc1` (configuration not stated): 8.91 µM [falling, partial curve, poor fit]; `O=C(c1cc(-c2ccco2)on1)N1CCCc2ccccc21`: 1.58 µM [rising, full curve]; `O=c1cc(-c2ccccc2)nc2nc(-c3ccccc3)[nH]n12`: 0.92 µM [falling, full curve].
The same measure, in the same setting: next, `CN(C)C(=O)COC(=O)c1ccccc1Nc1ccc(SC(F)F)cc1`: 20.6 µM [falling, partial curve]; `O=C(c1ccc2c(c1)OCO2)N1CCNc2ccccc2C1`: 1.46 µM [falling, partial curve]; `CNC(=O)/C(C#N)=C/c1c(N(Cc2ccccc2)Cc2ccccc2)nc2c(C)cccn2c1=O`: 2.59 µM [falling, partial curve, poor fit].
Take `COc1cc(/C=N/NC(=O)CCn2c3ccccc3c3ccccc32)cc(OC)c1OC`: the AC50 under setting [1] is 0.366 µM [rising, full curve, poor fit].
In the case of `COc1ccc(N2C(=O)[C@@H]3[C@H](C2=O)[C@H]2C=CC=NN2[C@@H]3C(=O)Nc2ccc(Cl)cc2)cc1`, under setting [1], the AC50 is 12.6 µM [falling, partial curve, poor fit].
The same measure, in the same setting: next, `Cc1ccccc1NS(=O)(=O)c1ccc(C2CNC(=O)C2)cc1` (configuration not stated): 0.164 µM [falling, full curve, poor fit].
